No constants are given. Whether binding was seen depends on the method and setting.

By UniProt entry, the sequences of proteins in these tests, tags left out. Residues count along the entry.
UniProt Q92793, residues 1081-1197: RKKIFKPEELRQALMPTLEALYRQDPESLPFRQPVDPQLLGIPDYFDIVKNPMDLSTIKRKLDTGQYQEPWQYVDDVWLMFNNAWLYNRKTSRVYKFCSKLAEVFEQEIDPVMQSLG
UniProt Q09472, residues 1048-1161: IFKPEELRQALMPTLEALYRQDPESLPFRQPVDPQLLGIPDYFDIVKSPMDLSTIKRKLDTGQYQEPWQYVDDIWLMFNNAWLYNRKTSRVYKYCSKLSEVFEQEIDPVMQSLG

The target of experiment [1] is bromodomain of CBP (residues 1081-1197) (human) (UniProt Q92793). Nature of the experiment: SEC; Superdex 75 equilibrated with 50 mM HEPES pH 7.5, 100 mM NaCl, 2 mM DTT; FPLC at 4 °C; last step of the purification; both purified. For orientation: SEC sorts molecules by how far they enter the pores of the column.
Experiment [2] deals with bromodomain of EP300 (residues 1048-1161) (human) (UniProt Q09472). The experiment is described as above.

Take “bromodomain of CBP (residues 1081-1197) (from UniProt Q92793 1081-1197) (domain or fragment)”: the binding result in experiment [1] was “no binding”.

As to “bromodomain of EP300 (residues 1048-1161) (from UniProt Q09472 1048-1161) (domain or fragment)”, the binding entry in experiment [2] is given as “no binding”.

(Values after article PMC11045757, “Group 3 medulloblastoma transcriptional networks collapse under domain specific EP300/CBP inhibition” (Nature Communications, 2024).)
